Measured data: PubChem BioAssay AID1259261 (Sanger Institute, 2017)

Test: 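Find kinase silencing that cuts viability alone or with anchor drugs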 (primary screen)
System: HCC2998 human colorectal cancer cells
Knock-down reagent: siRNA pool against human genes
Conditions: anchor drugs BYL719 1 µM, cetuximab 5 µg/ml or trametinib 10 nM, each compared with DMSO vehicle
Measurement: 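Viability as fraction of non-targeting control plus robust z-score without drug; synergy scores compare knock-down plus drug against each alone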
Direction: viability z-score, knock-down alone: higher = more viable cells than controls; viability fraction, knock-down alone: higher = more viable cells; synergy score with BYL719: higher = stronger combined killing with BYL719; synergy score with trametinib: higher = stronger combined killing with trametinib; synergy score with cetuximab: higher = stronger combined killing with cetuximab
Hit rule: 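a knock-down is called essential if its robust z-score without drug is under -3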
Calls: active = essential; inactive = no change
This is an unselected part of 794 reagents. 10 of them (1.3%) count as active. 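Calls reflect knock-down alone without drug; synergy scores with BYL719, cetuximab or trametinib do not affect calls.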 No viability above 1 is reported: the scale is capped. No sequences are given here. Not stated in the record: the amount of reagent, the time to read-out.

Gene	viability z-score, knock-down alone	viability fraction, knock-down alone	synergy score with BYL719	synergy score with trametinib	synergy score with cetuximab	Outcome
MAGI2	1.17	0.996	-0.0602	0.0179	0.0179	inactive
SBK1	0.181	0.872	-0.111	-0.0904	-0.0975	inactive
DDR1	0.377	0.896	-0.000542	0.0693	0.0893	inactive
WNK2	1.21	1	-0.00836	-0.0599	-0.0432	inactive
AURKB	0.388	0.898	-0.0297	0.0133	-0.0333	inactive
RNASEL	1.18	0.997	0.000469	0.124	-0.0465	inactive
PI4K2A	1.21	1	0.132	0.076	-0.00667	inactive
DGKK	0.584	0.922	-0.0844	0.0535	-0.0145	inactive
CSNK2A2	0.0888	0.86	0.0553	0.181	0.0372	inactive
ITPKC	1.1	0.987	-0.0357	0.0309	0.0411	inactive
CAMK2G	0.325	0.89	-0.0976	-0.168	-0.0452	inactive
CDK12	-0.348	0.805	-0.138	0.042	-0.0348	inactive
RPS6KA4	0.627	0.928	-0.0989	0.123	0.0461	inactive
NME1	-2.42	0.545	-0.128	-0.179	-0.0791	inactive
DGKQ	-0.0352	0.844	0.00805	0.0213	-0.0646	inactive
DAPK3	-0.631	0.77	-0.106	-0.103	-0.133	inactive
AK1	0.228	0.877	0.0343	0.0698	-0.0715	inactive
PRKD3	-1.42	0.671	-0.0232	0.151	-0.0523	inactive
LATS2	1.07	0.983	-0.00408	0.0901	0.0025	inactive
MAST4	1.21	1	0.0299	0.00682	-0.0116	inactive
MAPK10	0.268	0.882	-0.146	-0.0438	-0.0722	inactive
CASK	0.383	0.897	-0.00918	0.0915	-0.00265	inactive
FLT1	0.946	0.967	-0.0679	-0.00614	-0.0361	inactive
MERTK	-0.911	0.735	-0.124	-0.00238	0.0288	inactive
PDIK1L	-1.2	0.699	-0.106	0.00975	-0.125	inactive
RIPK2	-0.00596	0.848	-0.0359	0.131	-0.0657	inactive
PPP2R1A	-0.0858	0.838	-0.0117	0.0101	-0.0581	inactive
PAK1	-1.02	0.721	0.0152	0.0707	-0.123	inactive
MST1R	1.13	0.99	-0.043	-0.0537	0.0169	inactive
DYRK2	-0.187	0.825	0.0598	0.127	-0.138	inactive
CSNK2A1	1.21	1	-0.0792	-0.063	-0.0432	inactive
AAK1	1.21	1	0.169	0.111	0.101	inactive
CDC42BPG	0.517	0.914	-0.0713	-0.0349	-0.126	inactive
MAP2K2	1.21	1	0.0344	-0.0388	-0.0432	inactive
MAPK13	1.1	0.987	-0.121	0.021	0.0122	inactive
CKS2	1.13	0.991	-0.117	-0.0611	-0.0328	inactive
MARK1	-0.317	0.809	0.0602	0.0766	0.113	inactive
RPS6KL1	-0.404	0.798	-0.0434	0.146	-0.0529	inactive
SPEG	-0.605	0.773	-0.151	-0.0411	-0.0694	inactive
MOK	0.404	0.9	-0.0432	0.0636	-0.0567	inactive
FXN	0.439	0.904	-0.0189	0.0806	-0.078	inactive
MKNK2	0.161	0.869	0.00477	0.0138	0.000829	inactive
PFKFB3	-1.92	0.609	-0.0715	0.11	-0.022	inactive
ITPKB	0.873	0.958	0.00163	0.00881	0.00831	inactive
WHR1	1.21	1	-0.0619	-0.00733	0.0742	inactive
RUNX1	0.238	0.879	0.043	-0.103	0.0596	inactive
ACVR1	-0.252	0.817	-0.129	0.0188	-0.158	inactive
NEK2	0.146	0.867	-0.0749	0.0239	-0.0406	inactive
DYRK4	-1.84	0.619	-0.109	-0.0233	-0.0848	inactive
PTK2	-1.17	0.702	-0.0577	0.0195	-0.0281	inactive

Targets above whose target name starts with P or p (7):
Gene	viability z-score, knock-down alone	viability fraction, knock-down alone	synergy score with BYL719	synergy score with trametinib	synergy score with cetuximab	Outcome
PI4K2A	1.21	1	0.132	0.076	-0.00667	inactive
PRKD3	-1.42	0.671	-0.0232	0.151	-0.0523	inactive
PDIK1L	-1.2	0.699	-0.106	0.00975	-0.125	inactive
PPP2R1A	-0.0858	0.838	-0.0117	0.0101	-0.0581	inactive
PAK1	-1.02	0.721	0.0152	0.0707	-0.123	inactive
PFKFB3	-1.92	0.609	-0.0715	0.11	-0.022	inactive
PTK2	-1.17	0.702	-0.0577	0.0195	-0.0281	inactive
